The results in this text go back to article PMC4392834.

What all share (conditions): remark: other sources report otherwise
Test [1] concerns the target VC-AbdA (Drosophila melanogaster), P29555. The test can be described thus: split reporter; competition: cold (unfused) UAS-TF co-expressed with VC-AbdA and VN-Exd under abdA-Gal4; altered BiFC in the epidermis of stage 10-12 live embryos.
Test [2] has the same target. The test can be described thus: split reporter; Venus BiFC: VC-Hox and VN-TF co-expressed in live Drosophila embryos with the corresponding Hox-Gal4 driver (abdA-Gal4 for AbdA); epidermis, stage 10-12, quantified at stage 10; affected if equal or lower than 50% of wild type, stronger if 120% or more.
The target in test [3] is AbdA-HA (Drosophila melanogaster), P29555. The test can be described thus: co-IP; S2 cells transfected with AbdA-HA, actin-Gal4 and the VN-cofactor; nuclear extracts; ip with anti-HA, VN-cofactor revealed with anti-GFP.

These are yes or no findings as the source states them, for the method shown. In cells and extracts the contact can be indirect. Some results given as binding are weak or reduced against the parent protein; the word gives no strength.

B1: VN-Exd, P40427 1-376 (protein)
chain: MEDPNRMLAHTGGMMAPQGYGLSGQDDGQNAGSENEVRKQKDIGEILQQIMSISEQSLDEAQARKHTLNCHRMKPALFSVLCEIKEKTVLSIRNTQEEEPPDPQLMRLDNMLIAEGVAGPEKGGGGAAAASAAAASQGGSLSIDGADNAIEHSDYRAKLAQIRQIYHQELEKYEQACNEFTTHVMNLLREQSRTRPITPKEIERMVQIIHKKFSSIQMQLKQSTCEAVMILRSRFLDARRKRRNFSKQASEILNEYFYSHLSNPYPSEEAKEELARKCGITVSQVSNWFGNKRIRYKKNIGKAQEEANLYAAKKAAGASPYSMAGPPSGTTTPMMSPAPPQDSMGYPMGSGGYDQQQPYDNSMGGYDPNLHQDLSP
B1: the binding result in test [1] and in test [2] was “binds” in each case.

B2: VN-Pan, P91943 1-751 (protein)
chain: MPHTHSRHGSSGDDLCSTDEVKIFKDEGDREDEKISSENLLVEEKSSLIDLTESEEKGHKISRPDHSPVFNKLDTHAPSFNMGYLVSPYSYANGSPSGLPVTMANKIGLPPFFCHNADPLSTPPPAHCGIPPYQLDPKMGLTRPALYPFAGGQYPYPMLSSDMSQVASWHTPSVYSASSFRTPYPSSLPINTTLASDFPFRFSPSLLPSVHATSHHVINAHSAIVGVSSKQECGVQDPTTNNRYPRNLEAKHTSNAQSNESKETTNDKKKPHIKKPLNAFMLYMKEMRAKVVAECTLKESAAINQILGRRWHELSREEQSKYYEKARQERQLHMELYPGWSARDNYGYVSKKKKRKKDRSTTDSGGNNMKKCRARFGLDQQSQWCKPCRRKKKCIRYMEALNGNGPAEDGSCFDEHGSQLSDDDEDDYDDDKLGGSCGSADETNKIEDEDSESLNQSMPSPGCLSGLSSLQSPSTTMSLASPLNMNANSATNVIFPASSNALLIVGADQPTAQQRPTLVSTSGSSSGSTSSISTTPNTSSTVSPVTCMTGPCLGSSQERAMMLGNRFSHLGMGLSPPVVSTSTSKSEPFFKPHPTVCNNPIFALPSIGNCSLNISSMPNTSRNPIGANPRDINNPLSINQLTKRREYKNVELIEASESKTIVAHAATSIIQHVAVNGYHANHSLLNSNLGHLHHQLNNRTENPNRSEQTMLSVSNHSVNSSECHKESDSQAIVSSNPPNAGSSDNGVISVS
As for B2, in test [3], the binding entry was “binds”.
